{"sequences": {"note": "Chains of the proteins cited; added tags and fusions are not shown.", "UniProt P06428": "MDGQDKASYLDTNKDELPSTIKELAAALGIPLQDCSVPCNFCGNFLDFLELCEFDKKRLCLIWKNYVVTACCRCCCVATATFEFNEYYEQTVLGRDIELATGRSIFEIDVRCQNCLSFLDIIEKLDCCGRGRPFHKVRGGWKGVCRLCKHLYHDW", "UniProt Q86UU0": "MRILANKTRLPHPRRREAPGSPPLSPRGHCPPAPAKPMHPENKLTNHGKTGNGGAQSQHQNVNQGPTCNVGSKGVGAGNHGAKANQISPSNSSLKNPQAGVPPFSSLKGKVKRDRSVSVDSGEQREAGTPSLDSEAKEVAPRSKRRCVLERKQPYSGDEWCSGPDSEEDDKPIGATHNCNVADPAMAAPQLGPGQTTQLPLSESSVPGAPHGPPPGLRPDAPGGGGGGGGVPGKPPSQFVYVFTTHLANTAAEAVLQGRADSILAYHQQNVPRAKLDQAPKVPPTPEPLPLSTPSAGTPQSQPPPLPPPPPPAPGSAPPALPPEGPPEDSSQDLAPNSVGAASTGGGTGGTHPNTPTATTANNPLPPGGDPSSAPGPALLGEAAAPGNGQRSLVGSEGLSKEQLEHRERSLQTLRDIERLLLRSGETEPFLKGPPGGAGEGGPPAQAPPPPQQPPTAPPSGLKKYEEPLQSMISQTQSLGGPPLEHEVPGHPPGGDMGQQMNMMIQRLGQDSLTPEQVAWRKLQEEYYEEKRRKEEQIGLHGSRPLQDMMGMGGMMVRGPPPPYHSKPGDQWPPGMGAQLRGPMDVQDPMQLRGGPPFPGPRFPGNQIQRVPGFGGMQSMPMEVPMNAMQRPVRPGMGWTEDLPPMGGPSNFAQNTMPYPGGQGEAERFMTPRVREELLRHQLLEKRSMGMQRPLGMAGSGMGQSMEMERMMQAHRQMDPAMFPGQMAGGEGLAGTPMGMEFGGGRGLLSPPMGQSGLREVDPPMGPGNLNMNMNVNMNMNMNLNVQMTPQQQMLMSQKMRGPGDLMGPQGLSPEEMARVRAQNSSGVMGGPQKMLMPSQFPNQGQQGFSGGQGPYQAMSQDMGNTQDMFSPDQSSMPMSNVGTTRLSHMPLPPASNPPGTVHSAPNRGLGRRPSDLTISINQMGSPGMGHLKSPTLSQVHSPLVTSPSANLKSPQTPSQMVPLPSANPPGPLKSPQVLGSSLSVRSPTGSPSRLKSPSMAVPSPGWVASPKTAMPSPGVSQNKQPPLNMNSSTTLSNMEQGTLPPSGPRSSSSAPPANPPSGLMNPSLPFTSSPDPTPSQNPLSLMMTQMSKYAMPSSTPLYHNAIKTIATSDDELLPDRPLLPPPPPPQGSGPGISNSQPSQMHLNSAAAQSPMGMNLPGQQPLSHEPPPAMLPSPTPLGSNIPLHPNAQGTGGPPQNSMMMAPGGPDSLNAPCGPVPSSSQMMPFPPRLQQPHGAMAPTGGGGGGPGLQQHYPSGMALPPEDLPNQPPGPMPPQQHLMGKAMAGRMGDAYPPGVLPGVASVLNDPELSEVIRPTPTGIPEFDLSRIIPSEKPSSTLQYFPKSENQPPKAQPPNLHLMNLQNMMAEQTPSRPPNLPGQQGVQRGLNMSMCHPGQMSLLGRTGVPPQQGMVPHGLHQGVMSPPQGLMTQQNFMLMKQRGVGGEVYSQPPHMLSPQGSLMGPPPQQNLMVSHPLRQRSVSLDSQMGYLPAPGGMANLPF", "UniProt Q92793": "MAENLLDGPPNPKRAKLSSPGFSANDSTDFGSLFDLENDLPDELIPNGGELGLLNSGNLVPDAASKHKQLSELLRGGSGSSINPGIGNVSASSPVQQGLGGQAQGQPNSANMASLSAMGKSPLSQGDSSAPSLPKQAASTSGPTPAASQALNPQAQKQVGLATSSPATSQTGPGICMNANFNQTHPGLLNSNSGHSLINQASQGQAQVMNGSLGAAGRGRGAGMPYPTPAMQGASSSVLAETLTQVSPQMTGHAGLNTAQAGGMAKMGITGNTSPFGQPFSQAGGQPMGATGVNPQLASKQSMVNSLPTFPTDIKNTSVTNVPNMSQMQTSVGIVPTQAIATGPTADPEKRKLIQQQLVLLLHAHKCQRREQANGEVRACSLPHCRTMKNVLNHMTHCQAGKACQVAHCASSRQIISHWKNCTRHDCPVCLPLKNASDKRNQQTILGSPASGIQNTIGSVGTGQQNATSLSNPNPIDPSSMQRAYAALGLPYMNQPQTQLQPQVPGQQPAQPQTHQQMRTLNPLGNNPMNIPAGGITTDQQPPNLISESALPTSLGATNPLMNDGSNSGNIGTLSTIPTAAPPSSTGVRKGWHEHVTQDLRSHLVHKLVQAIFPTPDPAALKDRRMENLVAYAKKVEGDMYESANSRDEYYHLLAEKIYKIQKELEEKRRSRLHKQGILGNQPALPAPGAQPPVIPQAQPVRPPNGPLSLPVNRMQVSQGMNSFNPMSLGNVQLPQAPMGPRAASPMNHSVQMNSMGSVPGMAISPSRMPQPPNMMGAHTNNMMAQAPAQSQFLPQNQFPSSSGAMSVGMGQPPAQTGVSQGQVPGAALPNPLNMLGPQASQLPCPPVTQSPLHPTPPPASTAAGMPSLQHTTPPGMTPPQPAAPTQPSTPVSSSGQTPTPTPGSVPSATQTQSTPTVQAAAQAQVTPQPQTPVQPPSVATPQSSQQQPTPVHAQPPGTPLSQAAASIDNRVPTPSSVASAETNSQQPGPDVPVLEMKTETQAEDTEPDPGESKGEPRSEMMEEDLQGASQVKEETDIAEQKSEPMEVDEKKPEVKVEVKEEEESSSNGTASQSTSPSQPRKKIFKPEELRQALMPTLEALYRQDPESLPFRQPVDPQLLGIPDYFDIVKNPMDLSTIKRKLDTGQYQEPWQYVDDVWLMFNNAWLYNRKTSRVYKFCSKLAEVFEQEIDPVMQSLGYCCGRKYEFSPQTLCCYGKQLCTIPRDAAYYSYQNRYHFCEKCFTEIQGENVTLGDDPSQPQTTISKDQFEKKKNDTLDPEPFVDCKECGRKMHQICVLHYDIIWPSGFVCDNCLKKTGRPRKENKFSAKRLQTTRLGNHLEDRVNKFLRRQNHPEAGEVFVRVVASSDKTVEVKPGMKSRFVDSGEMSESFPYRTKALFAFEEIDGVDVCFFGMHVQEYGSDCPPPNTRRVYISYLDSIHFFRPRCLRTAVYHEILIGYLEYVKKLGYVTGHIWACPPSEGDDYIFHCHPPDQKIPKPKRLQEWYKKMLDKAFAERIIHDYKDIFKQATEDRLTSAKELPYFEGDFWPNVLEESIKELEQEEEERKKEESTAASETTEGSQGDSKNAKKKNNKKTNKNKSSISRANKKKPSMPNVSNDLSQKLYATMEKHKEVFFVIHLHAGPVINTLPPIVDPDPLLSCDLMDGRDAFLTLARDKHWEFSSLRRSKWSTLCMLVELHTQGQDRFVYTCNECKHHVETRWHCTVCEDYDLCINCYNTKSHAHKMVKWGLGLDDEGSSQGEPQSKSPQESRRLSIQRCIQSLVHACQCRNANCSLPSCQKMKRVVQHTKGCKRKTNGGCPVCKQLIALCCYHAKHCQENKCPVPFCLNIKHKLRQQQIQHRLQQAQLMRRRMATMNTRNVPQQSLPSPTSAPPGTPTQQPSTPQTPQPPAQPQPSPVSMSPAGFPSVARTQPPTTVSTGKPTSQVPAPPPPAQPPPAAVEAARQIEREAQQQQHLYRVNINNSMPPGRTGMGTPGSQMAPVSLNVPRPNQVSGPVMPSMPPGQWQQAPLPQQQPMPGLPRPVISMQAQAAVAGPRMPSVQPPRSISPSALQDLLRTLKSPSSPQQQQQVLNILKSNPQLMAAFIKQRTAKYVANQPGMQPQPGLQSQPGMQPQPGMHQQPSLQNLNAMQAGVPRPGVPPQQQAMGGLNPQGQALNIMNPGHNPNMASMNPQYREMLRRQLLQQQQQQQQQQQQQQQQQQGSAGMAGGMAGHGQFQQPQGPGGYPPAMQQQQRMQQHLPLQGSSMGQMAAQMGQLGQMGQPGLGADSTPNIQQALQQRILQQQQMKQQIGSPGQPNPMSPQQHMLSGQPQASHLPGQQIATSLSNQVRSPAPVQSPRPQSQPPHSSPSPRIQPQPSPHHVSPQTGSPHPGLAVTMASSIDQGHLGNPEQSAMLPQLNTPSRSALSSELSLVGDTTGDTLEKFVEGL"}, "source": "paper PMC10653872", "assay_in_all_cases": "affinity purification with mass spectrometry; HCT116 cells transiently transfected with amino or carboxyl terminally FLAG/HA-tagged HPV8 E6; common contaminants subtracted", "key": {"[1]": {"biological_target": "carboxyl terminally FLAG/HA epitope-tagged HPV8 E6 (HPV8 (human papillomavirus type 8)) (UniProt P06428)"}, "[2]": {"biological_target": "N-terminally FLAG/HA-tagged HPV8 E6 (HPV8 (human papillomavirus type 8)) (UniProt P06428)"}, "[3]": {"biological_target": "amino or carboxyl terminally FLAG/HA epitope-tagged HPV8 E6 (AP/MS bait, end of the tag not told for the hit) (HPV8 (human papillomavirus type 8)) (UniProt P06428)"}, "[4]": {"biological_target": "amino or carboxyl terminally FLAG/HA epitope-tagged HPV8 E6 (AP/MS bait, end of the tag not told for the hit) (HPV8 (human papillomavirus type 8)) (UniProt P06428)", "remark": "listed apart in the source"}}, "note": "Where two headings read alike, the source gives them in different places. These are yes or no findings as the source states them, for the method shown. Binding seen in cells or lysates may run through a third protein. Here binding means that the protein was enriched with, or labelled near, the bait; the list need not be complete."}
{"molecule": "B-cell CLL/lymphoma 9-like (BCL9L) (from UniProt Q86UU0 1-1499)", "values": [{"measurement": "binding", "setting": "[1]", "value": "binds"}, {"measurement": "binding", "setting": "[2]", "value": "binds"}]}
{"molecule": "cAMP response element binding protein (CREBBP) (from UniProt Q92793 1-2442)", "values": [{"measurement": "binding", "setting": "[3]", "value": "binds"}]}
{"molecule": "BCL9 (protein, UniProt O00512 1-1426) MHSSNPKVRSSPSGNTQSSPKSKQEVMVRPPTVMSPSGNPQLDSKFSNQGKQGGSASQSQPSPCDSKSGGHTPKALPGPGGSMGLKNGAGNGAKGKGKRERSISADSFDQRDPGTPNDDSDIKECNSADHIKSQDSQHTPHSMTPSNATAPRSSTPSHGQTTATEPTPAQKTPAKVVYVFSTEMANKAAEAVLKGQVETIVSFHIQNISNNKTERSTAPLNTQISALRNDPKPLPQQPPAPANQDQNSSQNTRLQPTPPIPAPAPKPAAPPRPLDRESPGVENKLIPSVGSPASSTPLPPDGTGPNSTPNNRAVTPVSQGSNSSSADPKAPPPPPVSSGEPPTLGENPDGLSQEQLEHRERSLQTLRDIQRMLFPDEKEFTGAQSGGPQQNPGVLDGPQKKPEGPIQAMMAQSQSLGKGPGPRTDVGAPFGPQGHRDVPFSPDEMVPPSMNSQSGTIGPDHLDHMTPEQIAWLKLQQEFYEEKRRKQEQVVVQQCSLQDMMVHQHGPRGVVRGPPPPYQMTPSEGWAPGGTEPFSDGINMPHSLPPRGMAPHPNMPGSQMRLPGFAGMINSEMEGPNVPNPASRPGLSGVSWPDDVPKIPDGRNFPPGQGIFSGPGRGERFPNPQGLSEEMFQQQLAEKQLGLPPGMAMEGIRPSMEMNRMIPGSQRHMEPGNNPIFPRIPVEGPLSPSRGDFPKGIPPQMGPGRELEFGMVPSGMKGDVNLNVNMGSNSQMIPQKMREAGAGPEEMLKLRPGGSDMLPAQQKMVPLPFGEHPQQEYGMGPRPFLPMSQGPGSNSGLRNLREPIGPDQRTNSRLSHMPPLPLNPSSNPTSLNTAPPVQRGLGRKPLDISVAGSQVHSPGINPLKSPTMHQVQSPMLGSPSGNLKSPQTPSQLAGMLAGPAAAASIKSPPVLGSAAASPVHLKSPSLPAPSPGWTSSPKPPLQSPGIPPNHKAPLTMASPAMLGNVESGGPPPPTASQPASVNIPGSLPSSTPYTMPPEPTLSQNPLSIMMSRMSKFAMPSSTPLYHDAIKTVASSDDDSPPARSPNLPSMNNMPGMGINTQNPRISGPNPVVPMPTLSPMGMTQPLSHSNQMPSPNAVGPNIPPHGVPMGPGLMSHNPIMGHGSQEPPMVPQGRMGFPQGFPPVQSPPQQVPFPHNGPSGGQGSFPGGMGFPGEGPLGRPSNLPQSSADAALCKPGGPGGPDSFTVLGNSMPSVFTDPDLQEVIRPGATGIPEFDLSRIIPSEKPSQTLQYFPRGEVPGRKQPQGPGPGFSHMQGMMGEQAPRMGLALPGMGGPGPVGTPDIPLGTAPSMPGHNPMRPPAFLQQGMMGPHHRMMSPAQSTMPGQPTLMSNPAAAVGMIPGKDRGPAGLYTHPGPVGSPGMMMSMQGMMGPQQNIMIPPQMRPRGMAADVGMGGFSQGPGNPGNMMF", "values": [{"measurement": "binding", "setting": "[4]", "value": "binds"}]}
{"molecule": "PYGO2 (protein, UniProt Q9BRQ0 1-406) MAASAPPPPDKLEGGGGPAPPPAPPSTGRKQGKAGLQMKSPEKKRRKSNTQGPAYSHLTEFAPPPTPMVDHLVASNPFEDDFGAPKVGVAAPPFLGSPVPFGGFRVQGGMAGQVPPGYSTGGGGGPQPLRRQPPPFPPNPMGPAFNMPPQGPGYPPPGNMNFPSQPFNQPLGQNFSPPSGQMMPGPVGGFGPMISPTMGQPPRAELGPPSLSQRFAQPGAPFGPSPLQRPGQGLPSLPPNTSPFPGPDPGFPGPGGEDGGKPLNPPASTAFPQEPHSGSPAAAVNGNQPSFPPNSSGRGGGTPDANSLAPPGKAGGGSGPQPPPGLVYPCGACRSEVNDDQDAILCEASCQKWFHRECTGMTESAYGLLTTEASAVWACDLCLKTKEIQSVYIREGMGQLVAANDG", "values": [{"measurement": "binding", "setting": "[4]", "value": "binds"}]}
